Test results published in article PMC6191539.
No constants are given. Whether binding was seen depends on the method and setting.

Assays:
[1] = target: NadA3 24–89 (Neisseria meningitidis serogroup B strain 2996) (UniProt Q8KH85); experiment: SEC-MALS; SE-HPLC on TSK Super SW3000 coupled to MALLS, room temperature (18 to 26°C), 10 mM NaH2PO4, 400 mM (NH4)2SO4 pH 6.0, 40 μg of NadA loaded; trimer to monomers; both purified
[2] = target: NadA3 24–103 (Neisseria meningitidis serogroup B strain 2996) (UniProt Q8KH85); experiment: as above

**Q.** With “NadA3 24–89 (from UniProt Q8KH85 24-89) (domain or fragment)” as the substance, how does the binding [1] read?
**A.** no binding

**Q.** How did the binding [2] turn out when “NadA3 24–103 (from UniProt Q8KH85 24-103) (domain or fragment)” was run?
**A.** no binding
